Data as given in PubChem BioAssay AID743454 (Peter MacCallum Cancer Centre, 2014).
In all, the deposit lists about 18,000 reagents; below is an unselected part. In the full data, 450 (2.5%) got an active call. 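Single biological run; no consistent viability z cut-off exists, so the class columns, not z-scores, define the calls.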 A number with no mark means an inactive call.

Aim: 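Search for knock-downs that restore vorinostat killing in resistant colon cancer cells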 (primary screen)
Cell system: human HCT116-VR colon cancer cells, selected for vorinostat resistance
Reagents: siRNA pool against human genes, 40 nM siRNA pool
Timing: vorinostat for 24 h, read-out about 72 h after transfection
Treatment: vorinostat at 2.5 µM final
Measurement: 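Two measures, CellTiter-Fluor viability and luminescent caspase 3/7 activity, each as fold change against same-plate mock wells, mean of duplicates, then screen-wide robust z-score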
Direction: viability robust z-score: higher = more viable cells than screen typical; caspase robust z-score: higher = more caspase 3/7 activity than screen typical
Hit rule: 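Hits are knock-downs in viability class RV1/RV2 or caspase class CA1/CA2, excluding ones that killed cells in the no-drug cell-count arm; hits then retested with single siRNAs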

For IFT46 (intraflagellar transport 46) the deposit lists viability hit class no change; caspase hit class no change; viability robust z-score 0.51; caspase robust z-score 0.13. Knock-down of VEGFB (vascular endothelial growth factor B) gave: viability hit class no change; caspase hit class no change; viability robust z-score -1.68; caspase robust z-score 0.94. Against ANKFN1 (ankyrin repeat and fibronectin type III domain containing 1), the values are viability hit class no change; caspase hit class no change; viability robust z-score 0.34; caspase robust z-score 0.46. Against ARID4A (AT-rich interaction domain 4A), the entry reads viability hit class no change; caspase hit class no change; viability robust z-score -0.44; caspase robust z-score 1.66. Silencing of ZFP41 (ZFP41 zinc finger protein) came out at: viability hit class no change; caspase hit class no change; viability robust z-score 0.21; caspase robust z-score 0.55. GPA33 (glycoprotein A33) gave viability hit class no change; caspase hit class no change; viability robust z-score 0.68; caspase robust z-score 0.66.

With knock-down of TXNRD2 (thioredoxin reductase 2), the record shows viability hit class no change; caspase hit class no change; viability robust z-score -1.4; caspase robust z-score 1.17. Against RNF130 (ring finger protein 130) the deposit lists viability hit class no change; caspase hit class no change; viability robust z-score 1.04; caspase robust z-score 1.42. Against LRRTM4 (leucine rich repeat transmembrane neuronal 4) the deposit lists viability hit class no change; caspase hit class no change; viability robust z-score -0.13; caspase robust z-score 0.64. KLK14 (kallikrein related peptidase 14) scored viability hit class no change; caspase hit class no change; viability robust z-score -0.97; caspase robust z-score 1.51. Against RPGRIP1L (RPGRIP1 like) the deposit lists viability hit class no change; caspase hit class no change; viability robust z-score 0.16; caspase robust z-score 0.18. ZNF823 (zinc finger protein 823) showed viability hit class no change; caspase hit class no change; viability robust z-score 0.62; caspase robust z-score -0.76.

With knock-down of NTN5 (netrin 5), the record shows viability hit class no change; caspase hit class no change; viability robust z-score -0.64; caspase robust z-score 2.34. HOMER3 (homer scaffold protein 3) showed viability hit class no change; caspase hit class no change; viability robust z-score -0.11; caspase robust z-score -0.32. Depletion of GLS2 (glutaminase 2) gave: viability hit class no change; caspase hit class no change; viability robust z-score 0.26; caspase robust z-score 0.38. CDPF1 (cysteine rich DPF motif domain containing 1) gave viability hit class no change; caspase hit class no change; viability robust z-score -1.38; caspase robust z-score -0.96. Against SOWAHB (sosondowah ankyrin repeat domain family member B) the deposit lists viability hit class no change (active); caspase hit class CA2 (caspase activation); viability robust z-score -2.68; caspase robust z-score 7.17. For STX11 (syntaxin 11), the values are viability hit class no change; caspase hit class no change; viability robust z-score 1.86; caspase robust z-score 1.75.

BTK (Bruton tyrosine kinase) gave viability hit class no change; caspase hit class no change; viability robust z-score 0.02; caspase robust z-score 0.16. Against TMC1 (transmembrane channel like 1) the deposit lists viability hit class no change; caspase hit class no change; viability robust z-score 1.64; caspase robust z-score 2.1. After knock-down of GBP4 (guanylate binding protein 4) the results were viability hit class no change; caspase hit class no change; viability robust z-score -0.52; caspase robust z-score 1.44. With knock-down of ZNF470 (zinc finger protein 470), the record shows viability hit class no change; caspase hit class no change; viability robust z-score -0.68; caspase robust z-score 1.56. GNG11 (G protein subunit gamma 11) scored viability hit class no change; caspase hit class no change; viability robust z-score 1.15; caspase robust z-score 0.08. TRAF3IP2 (TRAF3 interacting protein 2) scored viability hit class no change; caspase hit class no change; viability robust z-score 1.45; caspase robust z-score -0.5.

Silencing of SLC5A10 came out at: viability hit class no change; caspase hit class no change; viability robust z-score 0.21; caspase robust z-score 0.19. For RFC4 (replication factor C subunit 4) the deposit lists viability hit class no change; caspase hit class no change; viability robust z-score -0.32; caspase robust z-score -0.32. TNPO2 (transportin 2) gave viability hit class no change; caspase hit class no change; viability robust z-score -2.1; caspase robust z-score 1.45.

Ordered by “caspase robust z-score” (highest first): 2 of the entries above
GLS2 (glutaminase 2) | viability hit class: no change; caspase hit class: no change; viability robust z-score: 0.26; caspase robust z-score: 0.38
CDPF1 (cysteine rich DPF motif domain containing 1) | viability hit class: no change; caspase hit class: no change; viability robust z-score: -1.38; caspase robust z-score: -0.96
